No constants are given. Whether binding was seen depends on the method and setting. In cells and extracts the contact can be indirect. Some entries that bind do so weakly or less than the wild type. For some assays here: Where a sequence is shown, tags or fusion partners need not be part of it.
B1: GSDMD (protein, UniProt P57764 1-484)
chain: MGSAFERVVRRVVQELDHGGEFIPVTSLQSSTGFQPYCLVVRKPSSSWFWKPRYKCVNLSIKDILEPDAAEPDVQRGRSFHFYDAMDGQIQGSVELAAPGQAKIAGGAAVSDSSSTSMNVYSLSVDPNTWQTLLHERHLRQPEHKVLQQLRSRGDNVYVVTEVLQTQKEVEVTRTHKREGSGRFSLPGATCLQGEGQGHLSQKKTVTIPSGSTLAFRVAQLVIDSDLDVLLFPDKKQRTFQPPATGHKRSTSEGAWPQLPSGLSMMRCLHNFLTDGVPAEGAFTEDFQGLRAEVETISKELELLDRELCQLLLEGLEGVLRDQLALRALEEALEQGQSLGPVEPLDGPAGAVLECLVLSSGMLVPELAIPVVYLLGALTMLSETQHKLLAEALESQTLLGPLELVGSLLEQSAPWQERSTMSLPPGLLGNSWGEGAPAWVLLDECGLELGEDTPHVCWEPQAQGRMCALYASLALLSGLSQEPH
B2: Flag-GSDMD (protein, UniProt P57764 1-484)
chain: MGSAFERVVRRVVQELDHGGEFIPVTSLQSSTGFQPYCLVVRKPSSSWFWKPRYKCVNLSIKDILEPDAAEPDVQRGRSFHFYDAMDGQIQGSVELAAPGQAKIAGGAAVSDSSSTSMNVYSLSVDPNTWQTLLHERHLRQPEHKVLQQLRSRGDNVYVVTEVLQTQKEVEVTRTHKREGSGRFSLPGATCLQGEGQGHLSQKKTVTIPSGSTLAFRVAQLVIDSDLDVLLFPDKKQRTFQPPATGHKRSTSEGAWPQLPSGLSMMRCLHNFLTDGVPAEGAFTEDFQGLRAEVETISKELELLDRELCQLLLEGLEGVLRDQLALRALEEALEQGQSLGPVEPLDGPAGAVLECLVLSSGMLVPELAIPVVYLLGALTMLSETQHKLLAEALESQTLLGPLELVGSLLEQSAPWQERSTMSLPPGLLGNSWGEGAPAWVLLDECGLELGEDTPHVCWEPQAQGRMCALYASLALLSGLSQEPH

Sequences of proteins named here, by UniProt entry; tags and fusion partners are left off.
UniProt Q86WV6: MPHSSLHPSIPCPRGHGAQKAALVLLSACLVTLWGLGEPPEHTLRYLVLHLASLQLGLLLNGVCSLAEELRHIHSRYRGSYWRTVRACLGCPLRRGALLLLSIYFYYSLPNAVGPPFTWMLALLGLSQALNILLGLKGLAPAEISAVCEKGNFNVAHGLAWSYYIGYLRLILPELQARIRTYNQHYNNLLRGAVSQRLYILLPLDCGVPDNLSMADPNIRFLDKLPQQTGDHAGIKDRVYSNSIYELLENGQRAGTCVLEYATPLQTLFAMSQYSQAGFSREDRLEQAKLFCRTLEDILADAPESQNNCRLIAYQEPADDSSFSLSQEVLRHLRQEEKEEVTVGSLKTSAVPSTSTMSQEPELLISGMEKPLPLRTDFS

What was measured:
[1] = target: Mediator of IRF3 activation (MITA) (human (endogenous in THP-1)) (UniProt Q86WV6); assay: co-IP; endogenous co-IP in M1 and M2 cells derived from TDM cells; antibodies conjugated to resin (CO-IP kit, Pierce); in the presence of MG132 (20 uM); Western blot
HA-MITA = HA-MITA (UniProt Q86WV6); assay: co-IP; HEK-293T cells transiently co-transfected with HA-MITA and Flag-GSDMD or HA-MITA and Flag-NLRP3, harvested after 48 h; extracts incubated 12-16 h with the indicated antibodies, then protein A/G beads 2-4 h; in the presence of MG132 (20 uM); Western blot

Row | Binder | binding [1] | binding (HA-MITA)
1 | B1 | binds | –
2 | B2 | – | binds

From article PMC10253871
